Literature values as cited in patent US20050038473A1, “Device and method for the treatment of pilosebaceous disorders” (priority 2003, published 2005).
At least one compound was matched to its structure with a doubt left.

Tested on: idiopathic hirsutism
Conditions: women with idiopathic hirsutism taking flutamide

Question: Which “reduction of hair diameter” value does the source give for `CC(C)C(=O)Nc1ccc([N+](=O)[O-])c(C(F)(F)F)c1` [flutamide] here?
Answer: Its value is 30%.
